Results are given in words; binding and its absence hold for the method and conditions named. Some results given as binding are weak or reduced against the parent protein; the word gives no strength.
How the values were obtained:
[1] = target: HSP90 (endogenous, in lysates of human cells) (human) (UniProt P08238); test: anti-Flag affinity purification from HeLa cells, glycerol gradient, SDS-PAGE, MALDI-TOF-MS
[2] = target: HSP90 (endogenous, in lysates of human cells) (human) (UniProt P08238); test: anti-Flag immunoprecipitation from HCT116/Flag-MUC1-CD cells with or without HRG, immunoblot
[3] = target: HSP90 (endogenous, in lysates of human cells) (human) (UniProt P08238); test: anti-Flag immunoprecipitation from HCT116/Flag-MUC1-CD lysates, anti-HSP90 immunoblot
[4] = target: HSP90 (endogenous, in lysates of human cells) (human) (UniProt P08238); test: anti-MUC1-N immunoprecipitation from transfected 293 cells with or without c-Src, immunoblot
[5] = target: HSP90 (endogenous, in lysates of human cells) (human) (UniProt P08238); test: anti-MUC1-N immunoprecipitation from whole cell lysates and purified cell membranes of HCT116/MUC1 cells, anti-HSP90 immunoblot
[6] = target: HSP90 (endogenous, in lysates of human cells) (human) (UniProt P08238); test: anti-MUC1-N immunoprecipitation from HCT116/MUC1 cells with or without HRG, PP2 or GA, anti-HSP90 immunoblot
[7] = target: HSP90 (endogenous, in lysates of human cells) (human) (UniProt P08238); test: anti-HSP90 immunoprecipitation from control and HRG-treated HCT116/MUC1 cells, immunoblot for MUC1
[8] = target: HSP90 (endogenous, in lysates of human cells) (human) (UniProt P08238); test: anti-MUC1-N immunoprecipitation from ZR-75-1 lysates, anti-HSP90 immunoblot
[9] = target: HSP90 (endogenous, in lysates of human cells) (human) (UniProt P08238); test: anti-MUC1-N immunoprecipitation from MCF-7 lysates, anti-HSP90 immunoblot
[10] = target: HSP90 (endogenous, in lysates of human cells) (human) (UniProt P08238); test: anti-MUC1-N immunoprecipitation from HCT116/MUC1 lysates, anti-HSP90 immunoblot
[11] = target: HSP90 (endogenous, in lysates of human cells) (human) (UniProt P08238); test: anti-HSP90 immunoprecipitation from cytosolic fractions of HCT116/MUC1 cells, anti-MUC1-C immunoblot
[12] = target: HSP90 (endogenous, in lysates of human cells) (human) (UniProt P08238); test: anti-HSP90 immunoprecipitation from MCF-7 lysates, anti-MUC1-C immunoblot
[13] = target: HSP90 (endogenous, in lysates of human cells) (human) (UniProt P08238); test: anti-HSP90 immunoprecipitation from ZR-75-1 lysates, anti-MUC1-C immunoblot

Protein sequences, listed by entry. Tags and fused reporters are not part of them. Lines headed by an entry give the natural chain unless they say otherwise; changes in a name come on top. Residues count along the entry.
UniProt P08238: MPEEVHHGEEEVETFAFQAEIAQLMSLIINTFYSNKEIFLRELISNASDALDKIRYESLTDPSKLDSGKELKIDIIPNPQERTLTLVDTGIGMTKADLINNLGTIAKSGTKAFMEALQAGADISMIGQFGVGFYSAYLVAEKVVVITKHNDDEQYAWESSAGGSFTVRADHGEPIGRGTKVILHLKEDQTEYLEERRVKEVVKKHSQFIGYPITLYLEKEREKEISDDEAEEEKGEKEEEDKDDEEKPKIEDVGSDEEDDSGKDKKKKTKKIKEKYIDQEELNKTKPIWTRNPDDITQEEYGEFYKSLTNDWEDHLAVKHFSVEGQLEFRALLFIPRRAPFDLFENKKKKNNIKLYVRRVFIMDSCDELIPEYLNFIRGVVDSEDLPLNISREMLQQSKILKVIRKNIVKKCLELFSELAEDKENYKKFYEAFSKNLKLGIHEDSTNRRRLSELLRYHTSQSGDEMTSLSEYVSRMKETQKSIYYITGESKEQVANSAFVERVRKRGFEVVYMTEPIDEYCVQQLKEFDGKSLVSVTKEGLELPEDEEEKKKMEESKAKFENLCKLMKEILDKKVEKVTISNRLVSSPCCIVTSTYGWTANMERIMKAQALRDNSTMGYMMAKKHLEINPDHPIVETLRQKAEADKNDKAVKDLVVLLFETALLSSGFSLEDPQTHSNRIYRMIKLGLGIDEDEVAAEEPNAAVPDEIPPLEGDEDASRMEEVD
UniProt P15941, residues 24-1255: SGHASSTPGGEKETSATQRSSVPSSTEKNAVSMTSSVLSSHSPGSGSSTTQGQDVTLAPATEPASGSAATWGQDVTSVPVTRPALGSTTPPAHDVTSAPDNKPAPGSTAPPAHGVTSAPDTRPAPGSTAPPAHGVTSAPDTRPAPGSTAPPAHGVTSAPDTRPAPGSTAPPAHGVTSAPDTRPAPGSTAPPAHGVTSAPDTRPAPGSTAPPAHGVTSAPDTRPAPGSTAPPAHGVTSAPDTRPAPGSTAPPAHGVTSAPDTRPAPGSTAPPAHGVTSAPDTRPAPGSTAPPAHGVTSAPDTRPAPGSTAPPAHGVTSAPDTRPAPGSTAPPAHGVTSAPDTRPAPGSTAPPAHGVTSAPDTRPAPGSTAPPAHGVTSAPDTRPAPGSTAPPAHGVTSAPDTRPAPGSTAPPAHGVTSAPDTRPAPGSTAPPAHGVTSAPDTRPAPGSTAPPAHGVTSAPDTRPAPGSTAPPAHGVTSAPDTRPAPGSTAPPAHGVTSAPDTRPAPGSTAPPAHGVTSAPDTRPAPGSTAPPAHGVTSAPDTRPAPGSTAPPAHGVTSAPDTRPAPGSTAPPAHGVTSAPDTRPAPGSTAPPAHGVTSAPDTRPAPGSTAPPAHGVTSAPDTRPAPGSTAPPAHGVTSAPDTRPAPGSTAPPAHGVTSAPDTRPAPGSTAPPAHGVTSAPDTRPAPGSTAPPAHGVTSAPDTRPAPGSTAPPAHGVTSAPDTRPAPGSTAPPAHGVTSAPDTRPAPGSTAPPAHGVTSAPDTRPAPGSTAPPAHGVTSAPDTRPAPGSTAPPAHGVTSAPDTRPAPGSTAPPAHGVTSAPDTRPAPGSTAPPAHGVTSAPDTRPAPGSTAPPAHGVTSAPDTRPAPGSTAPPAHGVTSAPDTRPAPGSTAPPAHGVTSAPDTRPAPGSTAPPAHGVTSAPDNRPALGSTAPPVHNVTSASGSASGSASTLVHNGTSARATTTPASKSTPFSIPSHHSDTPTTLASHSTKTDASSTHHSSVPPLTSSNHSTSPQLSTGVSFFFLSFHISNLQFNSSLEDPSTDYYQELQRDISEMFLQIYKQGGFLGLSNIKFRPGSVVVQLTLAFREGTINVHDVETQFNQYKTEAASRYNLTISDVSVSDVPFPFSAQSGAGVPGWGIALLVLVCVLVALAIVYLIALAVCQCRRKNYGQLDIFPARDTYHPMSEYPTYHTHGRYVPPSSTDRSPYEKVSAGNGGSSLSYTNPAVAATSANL

Measured: binding

Flag-HA-tagged MUC1-C (pOZ-N-MUC1) (from UniProt P15941 1097-1255)
binds: [1]

Flag-MUC1-CD (from UniProt P15941 1184-1255)
binds: [2] | [3]

MUC1 (human, full length, expressed in cells) (from UniProt P15941 24-1255)
binds: [4] | [5] | [6] | [7] | [8] | [9] | [10]

MUC1-C (C-terminal subunit of MUC1, in cells) (from UniProt P15941 1098-1255)
binds: [11] | [12] | [13]
